No constants are given. Whether binding was seen depends on the method and setting. A result given as binding can be weak or reduced; the word gives no strength. For some assays here: In cells and extracts the contact can be indirect.
Columns and labels:
[1] = target: Flag-tagged Arabidopsis SPTssa (Arabidopsis) (UniProt A8MSB8); test: cryo-EM structure; single-particle cryo-EM of the coexpressed, purified complexes (WT, ORM1-N17A, LCB2a-ΔN5) at ~18 mg/ml in 25 mM Hepes pH 7.5, 150 mM NaCl, 0.01% GDN; the LCB2a-ΔN5 sample preincubated with 0.5 mM PLP, 10 mM L-serine and 1 mM S-CoA; both purified
[2] = target: Flag-tagged Arabidopsis SPTssa (Arabidopsis) (UniProt A8MSB8); test: co-purification (anti-Flag affinity resin, then size exclusion chromatography); subunits coexpressed in HEK293F; membranes solubilised with 1% GDN; captured by the N-terminal Flag tag of SPTssa, eluted with Flag peptide, Superose 6 in 25 mM Hepes pH 7.5, 150 mM NaCl, 0.01% GDN

Chains of the proteins cited; added tags and fusions are not shown. Lines headed by an entry give the natural chain unless they say otherwise; changes in a name come on top.
UniProt A8MSB8: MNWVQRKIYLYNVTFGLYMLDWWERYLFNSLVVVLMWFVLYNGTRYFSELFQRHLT

B1: Arabidopsis LCB2a-ΔN5 (protein, UniProt Q9LSZ9)
chain: MYLTAVSTYFSYGLLFAFGQLRDFFRRFIDWWFTSNLQGYAPICLGHEDFYIRRLYHRIQDCFERPISSAPDAWFDVVERYSNDNNKTLKRTTKTSRCLNLGSYNYLGFGSFDEYCTPRVIESLKKFSASTCSSRVDAGTTSVHAELEECVTRFVGKPAAVVFGMGYATNSAIIPVLIGKGGLIISDSLNHSSIVNGARGSGATIRVFQHNTPSHLERVLREQIAEGQPRTHRPWKKIIVVVEGIYSMEGEICHLPEVVAICKKYKAYVYLDEAHSIGAIGKTGKGICELLGVDTADVDVMMGTFTKSFGSCGGYIAGSKELIQYLKHQCPAHLYATSIPTPSAQQIISAIKVILGEDGSNRGAQKLARIRENSNFFRAELQKMGFEVLGDNDSPVMPIMLYNPAKIPAFSRECLRQKVAVVVVGFPATPLLLARARICISASHSREDLIRALKVISKVGDLSGIKYFPAEPKKIEQSKNDIKLD
B1 was tested, and the binding [1] was “binds”.

B2: Arabidopsis LCB1 (protein, UniProt Q94IB8 1-482)
chain: MASNLVEMFNAALNWVTMILESPSARVVLFGVPIRGHFFVEGLLGVVIIILLTRKSYKPPKRPLTEQEIDELCDEWVPEPLIPPITEDMKHEPPVLESAAGPHTTVNGKDVVNFASANYLGLIGHEKLLESCTSALEKYGVGSCGPRGFYGTIDVHLDCETRISKFLGTPDSILYSYGLSTMFSTIPCFCKKGDVIVADEGVHWGIQNGLQLSRSTIVYFKHNDMESLRITLEKIMTKYKRSKNLRRYIVAEAVYQNSGQIAPLDEIVKLKEKYRFRVILDESNSFGVLGRSGRGLAEHHSVPIEKIDVVTAAMGHALATEGGFCTGNARIIDYQRLSSSGYVFSASLPPYLASAAITAIDVIDQNPDMLVKLKQNVALLWKGLSDIKGMSLTSNRESPIVFLKLEKSSGSAKDDLLLLEKMADRALKEDSLLVVSSKRSFLDKCRLPVGIKLYVSAGHSESDLLKASESLKRLASELLLKS
In the case of B2, the binding [2] is reported as “binds”.

From article PMC10058238, “Mechanism of sphingolipid homeostasis revealed by structural analysis of Arabidopsis SPT-ORM1 complex” (Science Advances, 2023)
